The list is a part of this screen's results and no random one: it gathers some chemical classes. Not every dose and run of a compound is shown. T/C: endpoint of the treated group in % of that of the vehicle group. Some entries give survivors of the animals treated and no T/C: the source holds a T/C of zero for them, seemingly a mark for toxic or unscored doses. Some doses without a T/C left all or most animals alive at the check, yet need not have been tolerated: the source hardly ever lists a survival T/C far under the control, and the zero likely stands for such cases as well. Survivors were counted at the toxicity check, usually on the fifth day, unless a day is given; later deaths do not show. Schedule codes are those of the source, taken here to give the interval after Q, in days (D) or hours (H), and the number of doses after X. Some schedules carry Z or #; the key to these is not given. For survival time, this PubChem deposit counts one and a half times the control or more as active, and values a quarter to a half above the control carry no call in these data; other NCI protocols may use other cut-offs. Some doses were run more than once; the results are listed from low to high.
System: P335 leukemia ip, BDF1 mice, survival T/C %
Assay: NCI In Vivo Anticancer Drug Screen. Data for tumor model P335 Leukemia (intraperitoneal) in B6D2F1 (BDF1) mice
Settings: T/C endpoint: mean survival time, schedule: Q01DX Z (ip), higher T/C = longer survival
Experimental: The antitumor activity of compounds was measured in mice bearing transplantable tumors. Survival or tumor size were measured and the results are expressed as the measurement made in the treated group (T) divided by the measurement made in the vehicle treated control group (C). The tumor model used in this assay is P335 Leukemia (intraperitoneal) in B6D2F1 (BDF1) mice

CC[C@H](C)[C@@H]1NC(=O)/C(=C(\C)O)C1=O
survivor count (dose: 25.0 mg/kg/injection, vehicle: water): 6 of 6 | survivor count (dose: 50.0 mg/kg/injection, vehicle: water): 4 of 6 | survivor count (dose: 100.0 mg/kg/injection, vehicle: water): 1 of 6 | survivor count (dose: 200.0 mg/kg/injection, vehicle: water): 0 of 6

CN(N=O)C(=N)N[N+](=O)[O-]
survivor count (dose: 9.4 mg/kg/injection, vehicle: methylcellulose (MC)): 6 of 6 | survivor count (dose: 18.75 mg/kg/injection, vehicle: methylcellulose (MC)): 6 of 6 | T/C (dose: 37.5 mg/kg/injection, vehicle: methylcellulose (MC)): 101 % of control | survivor count (dose: 75.0 mg/kg/injection, vehicle: methylcellulose (MC)): 6 of 6

Cc1[nH]c(=O)[nH]c(=O)c1N(CCCl)CCCl
T/C (dose: 0.25 mg/kg/injection, vehicle: carboxymethylcellulose (CMC)): 102 and 119 % of control | T/C (dose: 0.5 mg/kg/injection, vehicle: carboxymethylcellulose (CMC)): 90 and 108 % of control | T/C (dose: 1.0 mg/kg/injection, vehicle: carboxymethylcellulose (CMC)): 116, 120, 145 % of control | T/C (dose: 2.0 mg/kg/injection, vehicle: carboxymethylcellulose (CMC)): 92, 146, 161 % of control | survivor count (dose: 4.0 mg/kg/injection, vehicle: carboxymethylcellulose (CMC)): 5 of 6 | survivor count (dose: 8.0 mg/kg/injection, vehicle: carboxymethylcellulose (CMC)): 4 of 6

From PubChem BioAssay AID224 (DTP/NCI, 2004)
